These are yes or no findings as the source states them, for the method shown. Binding seen in cells or lysates may run through a third protein. Here binding means that the protein was enriched with, or labelled near, the bait; the list need not be complete.

Chains of the proteins cited; added tags and fusions are not shown. Lines headed by an entry give the natural chain unless they say otherwise; changes in a name come on top.
UniProt A0A509AN32: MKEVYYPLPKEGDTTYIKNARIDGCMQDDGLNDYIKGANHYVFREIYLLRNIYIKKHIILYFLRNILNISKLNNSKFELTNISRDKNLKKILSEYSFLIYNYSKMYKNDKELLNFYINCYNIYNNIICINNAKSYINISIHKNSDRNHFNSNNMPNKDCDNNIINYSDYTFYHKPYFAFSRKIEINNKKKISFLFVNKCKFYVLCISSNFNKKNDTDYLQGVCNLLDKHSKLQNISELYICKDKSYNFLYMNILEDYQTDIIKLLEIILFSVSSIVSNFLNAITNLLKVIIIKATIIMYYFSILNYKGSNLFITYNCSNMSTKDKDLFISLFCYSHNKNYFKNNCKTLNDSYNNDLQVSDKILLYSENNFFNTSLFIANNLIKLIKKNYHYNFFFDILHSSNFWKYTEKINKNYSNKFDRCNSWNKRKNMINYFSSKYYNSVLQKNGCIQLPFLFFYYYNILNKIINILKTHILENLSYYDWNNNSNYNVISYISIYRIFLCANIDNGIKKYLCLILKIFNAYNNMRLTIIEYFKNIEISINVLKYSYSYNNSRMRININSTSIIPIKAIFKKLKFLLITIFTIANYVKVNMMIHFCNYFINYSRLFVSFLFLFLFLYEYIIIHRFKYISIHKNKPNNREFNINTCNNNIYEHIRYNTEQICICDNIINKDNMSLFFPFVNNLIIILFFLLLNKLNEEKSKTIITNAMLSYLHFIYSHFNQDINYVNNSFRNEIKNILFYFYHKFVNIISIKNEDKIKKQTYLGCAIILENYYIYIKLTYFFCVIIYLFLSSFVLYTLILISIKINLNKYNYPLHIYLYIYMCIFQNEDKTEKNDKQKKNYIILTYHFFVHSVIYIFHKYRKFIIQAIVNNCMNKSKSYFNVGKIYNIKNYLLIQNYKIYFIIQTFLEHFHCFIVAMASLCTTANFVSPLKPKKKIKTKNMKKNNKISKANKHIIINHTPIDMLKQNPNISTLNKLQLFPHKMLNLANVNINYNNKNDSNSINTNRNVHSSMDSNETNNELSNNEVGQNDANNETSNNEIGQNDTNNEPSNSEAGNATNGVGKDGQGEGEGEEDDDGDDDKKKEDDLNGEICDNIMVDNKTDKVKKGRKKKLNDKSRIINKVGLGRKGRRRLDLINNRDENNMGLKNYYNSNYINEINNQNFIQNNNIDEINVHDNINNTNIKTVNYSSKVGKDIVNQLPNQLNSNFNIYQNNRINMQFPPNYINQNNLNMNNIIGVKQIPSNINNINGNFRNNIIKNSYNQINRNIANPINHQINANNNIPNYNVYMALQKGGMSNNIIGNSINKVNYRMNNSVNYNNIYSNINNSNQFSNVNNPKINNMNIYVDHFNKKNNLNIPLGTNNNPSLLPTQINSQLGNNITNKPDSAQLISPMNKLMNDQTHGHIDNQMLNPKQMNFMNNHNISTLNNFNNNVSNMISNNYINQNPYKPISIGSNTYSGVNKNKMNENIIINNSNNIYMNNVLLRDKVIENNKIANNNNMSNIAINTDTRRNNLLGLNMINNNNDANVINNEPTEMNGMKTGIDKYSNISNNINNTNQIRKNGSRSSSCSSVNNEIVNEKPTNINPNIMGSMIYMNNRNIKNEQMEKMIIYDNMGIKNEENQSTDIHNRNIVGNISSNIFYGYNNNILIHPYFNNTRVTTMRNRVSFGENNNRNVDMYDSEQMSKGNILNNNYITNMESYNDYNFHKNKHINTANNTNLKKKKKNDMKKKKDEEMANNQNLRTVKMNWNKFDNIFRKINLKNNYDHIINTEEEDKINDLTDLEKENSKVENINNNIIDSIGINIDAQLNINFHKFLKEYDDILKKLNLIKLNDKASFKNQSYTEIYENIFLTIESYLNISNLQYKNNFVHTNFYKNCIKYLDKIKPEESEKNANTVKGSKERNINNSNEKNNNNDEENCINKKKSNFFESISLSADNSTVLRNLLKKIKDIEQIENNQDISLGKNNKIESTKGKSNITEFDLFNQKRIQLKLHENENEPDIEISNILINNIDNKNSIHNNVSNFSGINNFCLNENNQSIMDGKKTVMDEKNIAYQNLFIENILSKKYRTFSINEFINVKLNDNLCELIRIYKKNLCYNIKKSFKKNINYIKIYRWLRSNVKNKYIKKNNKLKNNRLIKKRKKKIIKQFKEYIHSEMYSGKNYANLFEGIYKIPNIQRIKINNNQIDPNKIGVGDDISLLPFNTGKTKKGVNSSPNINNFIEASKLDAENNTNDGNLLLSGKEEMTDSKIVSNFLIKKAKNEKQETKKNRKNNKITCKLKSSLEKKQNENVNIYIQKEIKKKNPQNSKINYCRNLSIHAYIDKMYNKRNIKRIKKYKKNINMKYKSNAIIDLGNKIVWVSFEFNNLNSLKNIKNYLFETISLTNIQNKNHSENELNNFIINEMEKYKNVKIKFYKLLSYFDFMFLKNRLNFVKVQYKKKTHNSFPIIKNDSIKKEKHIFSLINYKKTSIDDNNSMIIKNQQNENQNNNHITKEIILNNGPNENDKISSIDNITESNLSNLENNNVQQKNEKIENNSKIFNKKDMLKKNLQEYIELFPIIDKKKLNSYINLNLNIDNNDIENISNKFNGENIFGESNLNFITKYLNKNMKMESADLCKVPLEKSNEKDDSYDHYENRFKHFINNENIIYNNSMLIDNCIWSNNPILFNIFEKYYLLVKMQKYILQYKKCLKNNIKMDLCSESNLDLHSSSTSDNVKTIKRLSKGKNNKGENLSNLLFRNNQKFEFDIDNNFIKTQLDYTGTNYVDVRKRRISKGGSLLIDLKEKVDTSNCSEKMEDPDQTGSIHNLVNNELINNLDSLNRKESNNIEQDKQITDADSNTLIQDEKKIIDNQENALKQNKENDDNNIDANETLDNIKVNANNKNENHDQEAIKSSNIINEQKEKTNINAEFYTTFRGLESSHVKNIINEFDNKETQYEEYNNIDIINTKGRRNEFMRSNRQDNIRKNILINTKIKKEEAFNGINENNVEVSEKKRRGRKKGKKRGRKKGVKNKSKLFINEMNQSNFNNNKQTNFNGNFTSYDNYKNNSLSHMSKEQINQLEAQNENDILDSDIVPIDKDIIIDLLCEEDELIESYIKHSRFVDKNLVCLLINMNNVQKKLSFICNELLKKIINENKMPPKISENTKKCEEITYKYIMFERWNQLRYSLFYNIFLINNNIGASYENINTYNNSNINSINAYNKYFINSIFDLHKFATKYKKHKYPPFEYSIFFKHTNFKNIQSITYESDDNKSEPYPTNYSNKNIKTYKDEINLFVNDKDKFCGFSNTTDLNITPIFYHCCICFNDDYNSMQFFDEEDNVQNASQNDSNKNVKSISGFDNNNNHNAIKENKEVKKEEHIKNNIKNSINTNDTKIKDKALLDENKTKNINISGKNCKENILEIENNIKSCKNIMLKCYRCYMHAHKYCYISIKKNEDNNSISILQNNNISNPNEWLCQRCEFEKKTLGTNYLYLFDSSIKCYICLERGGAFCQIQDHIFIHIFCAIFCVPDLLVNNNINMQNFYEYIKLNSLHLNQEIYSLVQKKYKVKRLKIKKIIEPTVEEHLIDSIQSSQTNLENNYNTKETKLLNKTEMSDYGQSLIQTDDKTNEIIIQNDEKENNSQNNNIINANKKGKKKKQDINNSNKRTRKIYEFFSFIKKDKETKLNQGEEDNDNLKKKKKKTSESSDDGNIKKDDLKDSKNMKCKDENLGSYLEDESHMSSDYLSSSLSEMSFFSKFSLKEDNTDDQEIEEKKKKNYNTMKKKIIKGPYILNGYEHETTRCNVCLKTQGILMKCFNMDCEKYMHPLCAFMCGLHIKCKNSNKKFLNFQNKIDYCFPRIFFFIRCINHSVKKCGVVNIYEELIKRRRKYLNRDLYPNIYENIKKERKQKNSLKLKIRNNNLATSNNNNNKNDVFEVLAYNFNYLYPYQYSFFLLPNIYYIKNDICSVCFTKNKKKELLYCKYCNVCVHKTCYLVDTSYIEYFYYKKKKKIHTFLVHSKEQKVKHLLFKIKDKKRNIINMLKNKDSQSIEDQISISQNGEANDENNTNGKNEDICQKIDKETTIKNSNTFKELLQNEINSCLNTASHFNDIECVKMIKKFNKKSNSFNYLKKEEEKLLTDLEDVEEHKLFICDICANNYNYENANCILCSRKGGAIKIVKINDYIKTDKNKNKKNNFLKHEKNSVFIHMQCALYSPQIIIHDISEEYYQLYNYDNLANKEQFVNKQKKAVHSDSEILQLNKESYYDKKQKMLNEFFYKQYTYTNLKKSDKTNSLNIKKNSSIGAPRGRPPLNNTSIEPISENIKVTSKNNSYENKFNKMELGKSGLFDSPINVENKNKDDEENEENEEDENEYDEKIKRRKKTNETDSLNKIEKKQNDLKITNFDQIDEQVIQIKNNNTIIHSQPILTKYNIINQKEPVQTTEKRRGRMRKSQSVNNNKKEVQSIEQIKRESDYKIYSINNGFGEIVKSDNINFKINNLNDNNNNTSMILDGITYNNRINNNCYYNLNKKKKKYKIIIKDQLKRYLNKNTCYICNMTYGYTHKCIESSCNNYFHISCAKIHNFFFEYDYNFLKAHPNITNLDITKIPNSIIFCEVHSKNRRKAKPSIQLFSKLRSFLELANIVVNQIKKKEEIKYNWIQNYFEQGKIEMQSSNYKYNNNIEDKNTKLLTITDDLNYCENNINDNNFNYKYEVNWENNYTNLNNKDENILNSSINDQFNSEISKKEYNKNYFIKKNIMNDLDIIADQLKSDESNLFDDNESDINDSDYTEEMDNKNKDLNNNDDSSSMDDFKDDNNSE
UniProt A0A509AUV4: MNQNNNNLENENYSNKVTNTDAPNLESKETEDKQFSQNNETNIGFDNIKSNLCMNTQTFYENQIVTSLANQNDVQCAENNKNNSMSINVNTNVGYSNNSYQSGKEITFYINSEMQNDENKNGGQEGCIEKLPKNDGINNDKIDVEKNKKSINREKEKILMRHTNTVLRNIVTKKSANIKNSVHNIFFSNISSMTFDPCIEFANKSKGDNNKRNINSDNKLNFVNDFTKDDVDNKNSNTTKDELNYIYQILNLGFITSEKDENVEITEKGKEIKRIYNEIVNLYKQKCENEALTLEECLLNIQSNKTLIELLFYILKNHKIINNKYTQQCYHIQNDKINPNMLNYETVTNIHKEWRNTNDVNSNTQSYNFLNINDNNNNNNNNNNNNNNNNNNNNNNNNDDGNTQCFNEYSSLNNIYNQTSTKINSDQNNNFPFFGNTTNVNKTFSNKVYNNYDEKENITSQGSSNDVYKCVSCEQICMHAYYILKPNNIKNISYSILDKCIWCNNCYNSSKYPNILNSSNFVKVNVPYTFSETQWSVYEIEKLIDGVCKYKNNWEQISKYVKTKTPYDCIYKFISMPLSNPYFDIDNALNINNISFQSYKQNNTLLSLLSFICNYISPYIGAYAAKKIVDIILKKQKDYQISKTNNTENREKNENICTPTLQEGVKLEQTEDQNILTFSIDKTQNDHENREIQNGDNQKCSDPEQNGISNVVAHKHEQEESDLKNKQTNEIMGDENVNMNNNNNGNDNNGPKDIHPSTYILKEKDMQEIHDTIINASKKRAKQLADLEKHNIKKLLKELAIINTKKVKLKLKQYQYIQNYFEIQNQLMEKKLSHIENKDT
UniProt A0A509AJA1: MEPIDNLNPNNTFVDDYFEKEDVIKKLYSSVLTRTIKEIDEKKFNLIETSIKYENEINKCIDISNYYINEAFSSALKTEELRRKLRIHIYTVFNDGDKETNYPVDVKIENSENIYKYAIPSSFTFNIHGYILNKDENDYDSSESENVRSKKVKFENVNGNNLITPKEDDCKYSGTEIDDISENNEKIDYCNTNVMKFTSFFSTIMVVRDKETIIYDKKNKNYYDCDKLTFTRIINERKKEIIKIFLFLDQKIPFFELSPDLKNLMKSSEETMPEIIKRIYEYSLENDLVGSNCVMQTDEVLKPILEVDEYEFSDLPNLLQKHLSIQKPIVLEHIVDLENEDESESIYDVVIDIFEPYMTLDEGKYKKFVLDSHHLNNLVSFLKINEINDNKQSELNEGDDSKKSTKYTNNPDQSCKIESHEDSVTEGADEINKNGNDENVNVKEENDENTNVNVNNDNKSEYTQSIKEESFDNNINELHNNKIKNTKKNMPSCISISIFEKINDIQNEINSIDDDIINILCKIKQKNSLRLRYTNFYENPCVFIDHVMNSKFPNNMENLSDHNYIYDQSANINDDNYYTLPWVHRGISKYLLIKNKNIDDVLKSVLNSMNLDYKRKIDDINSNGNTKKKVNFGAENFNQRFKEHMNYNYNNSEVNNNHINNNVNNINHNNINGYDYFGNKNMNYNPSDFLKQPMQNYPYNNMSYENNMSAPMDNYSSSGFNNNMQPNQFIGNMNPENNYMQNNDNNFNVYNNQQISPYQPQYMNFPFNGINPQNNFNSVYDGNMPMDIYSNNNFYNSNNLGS

The target in this test is PbARID fused with GFP (PbARID::GFP) (P. berghei). Put plainly: affinity purification with mass spectrometry; RIME (ChIP combined with MS): gametocyte-enriched PbARID::GFP parasites fixed with 1% formalin, lysed in SDS lysis buffer, sonicated; immunoprecipitated with anti-GFP polyclonal antibodies (Abcam ab290) on Dynabeads Protein A; on-bead trypsin digest, LC-MS/MS; compared with RIME of WT gametocytes; hits unique or more than five-fold enriched with P < 0.05; four independent experiments.

With ADA2 (from UniProt A0A509AM07), the binding result is listed as “binds”.

As to AP2-LT (from UniProt A0A509ANP9), the binding result is on record as “binds”.

With GCN5 (from UniProt A0A509AHP2), the binding entry is listed as “binds”.

As for MD2 (from UniProt A0A509AVW6), the binding entry is recorded as “binds”.

Take PHD2 (from UniProt A0A509AN32): the binding entry was “binds”.

As for PbSWI3 (from UniProt A0A509AUV4), the binding entry was “binds”.

As to PbSWIB (from UniProt A0A509AJA1), the binding entry is “binds”.

Regarding actin II (from UniProt Q4YU79 1-376), the binding result is recorded as “binds”.

Consider “actin-like protein ALP2B (from UniProt A0A509ARX1)”, for which the binding entry was “binds”.

“chromodomain-helicase-DNA-binding protein 1 (CHD1) (from UniProt A0A509AG56)”: the binding result was “binds”.

As for “homeodomain-like protein 1 (HDP1) (from UniProt A0A509APT7)”, the binding entry is reported as “binds”.

For the origin of these results see article PMC11162789.
